Assay results as given in the supplement of paper PMC12889115.
The list shows a part of the results. Values are raw readings; no control value is given beside them.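 Primary screen: polymyxin B was added at a level permeabilizing Salmonella outer membranes while sparing inner membranes. DMSO wells, both with and without polymyxin B, established maximum growth. Plate-to-plate variation meant each plate was ranked on its own, and the lowest-OD600 compounds were selected as hits.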

Test system: Salmonella enterica serovar Typhimurium SL1344
Assay: bacterial growth OD600 after 18 h with compound and polymyxin B; higher = more bacterial growth (less inhibition)
Details: 50 µM, Mueller-Hinton broth

Row | SMILES | bacterial growth OD600 (polymyxin B 1 µg/mL) | bacterial growth OD600 (polymyxin B 0.75 µg/mL)
1 | COc1ccc(C(=O)N2CCCC(N3CCN(c4ccc(F)cc4)CC3)C2)c(OC)c1 (stereo not given) | 0.93 | 
2 | Cc1ccsc1C(=O)N1CCCC(C(=O)c2cccc(OC(C)C)c2)C1 (stereo not given) | 0.66 | 
3 | O=C(C1=CCCC1)N1CCCC(c2[nH]ncc2-c2ccc(F)c(F)c2)C1 (stereo not given) |  | 0.752
4 | COc1ccc(CNC(=O)CCC2CCCN(Cc3ccccc3)C2)c(OC)c1 (stereo not given) | 1.07 | 
5 | CC(C)n1cc(CNC2CC(C)(C)Cc3nc(N4CCOCC4)ncc32)cn1 (stereo not given) |  | 0.96
6 | Cc1ccc(F)cc1CNC(=O)C1CCN(c2nc(C)c3ccc(S(C)(=O)=O)cc3n2)CC1 |  | 0.893
7 | CCn1cnnc1CN(C)c1ccc(-c2nc(COc3ccccc3)no2)cn1 | 0.774 | 
8 | C1CCCN(c2nc3nonc3nc2NCCCN2CCOCC2)CC1 | 1.05 | 
9 | COCCN1C(=O)CC(CC(=O)N2CCCC(C(=O)c3ccccc3)C2)(c2ccccc2F)C1=O (stereo not given) |  | 0.782
10 | COc1cccc(CC2=NOC(C(=O)NCc3ccc(C(F)(F)F)cc3)C2)c1 (stereo not given) |  | 0.006
11 | Cc1ccc2c(c1)CN(CC(=O)N(C)Cc1nccn1C)CC(c1ccsc1)O2 (stereo not given) |  | 0.006
12 | Cc1ccn(CCC(=O)NCc2cccnc2Oc2ccccc2F)n1 | 1.11 | 
13 | CCOC(=O)N1CCC(NC(=O)C2CC23CCN(C(=O)c2ccccc2C(F)(F)F)CC3)CC1 (stereo not given) |  | 0.863
14 | Cc1ccccc1C(CC(=O)N(C)Cc1c(C)nn(C)c1C)c1ccccc1 (stereo not given) |  | 0.523
15 | COc1ccc(N2C(=O)CN(C(=O)c3cccnc3SC)CC23CCCC3)cc1 |  | 0.768
16 | CCn1ccnc1CN1CCCC(CCC(=O)Nc2ccccc2F)C1 (stereo not given) | 0.849 | 
17 | Cc1ccc(-n2ncc3c2CCCC3NC(=O)C2CCN(C(=O)N(C)C)CC2)cc1C (stereo not given) | 1.16 | 
18 | O=C(Nc1ccc(-c2nc3ccccc3o2)cc1)C1CCCN1C(=O)C1CC1 (stereo not given) |  | 0.973
19 | COc1ccc(F)c(CC2(CCC(=O)N3CCCC(OCc4ccccc4)C3)CCC(=O)N2)c1 (stereo not given) |  | 0.844
20 | COc1ccc(CN2CCCC(N3CCN(c4ccccc4C)CC3)C2)cc1 (stereo not given) | 0.889 | 

Quoted at random: 2 compounds from above
Row | SMILES | bacterial growth OD600 (polymyxin B 1 µg/mL) | bacterial growth OD600 (polymyxin B 0.75 µg/mL)
6 | Cc1ccc(F)cc1CNC(=O)C1CCN(c2nc(C)c3ccc(S(C)(=O)=O)cc3n2)CC1 |  | 0.893
9 | COCCN1C(=O)CC(CC(=O)N2CCCC(C(=O)c3ccccc3)C2)(c2ccccc2F)C1=O (stereo not given) |  | 0.782
